From patent US9572828B2, “Treatment for melanoma” (The Board of Regents of the University of Texas System, priority 2013, dated 2017)
For at least one compound, name, drawing or mass did not settle the structure.

Columns and labels:
[1] = system: primary melanomas from patients; assay: xenograft assay, digitoxin and/or GSK1120212; type: in vivo, NSG mice; conditions: 0.5 mg/kg/day each agent by oral gavage; melanomas from multiple patients, with and without BRAF mutations
[2] = system: BRAFV600E/K mutant advanced or malignant melanoma; conditions: cited from earlier work

## CC(=O)Nc1cccc(-n2c(=O)n(C3CC3)c(=O)c3c(Nc4ccc(I)cc4F)n(C)c(=O)c(C)c32)c1 [Trametinib]
[1]
  growth of human melanoma xenografts: slowed the growth
[2]; in vivo
  confirmed overall response rate: 24%
[2]; primary population, Trametinib 2 mg QD vs chemotherapy
  HR for progression free survival by investigator: 0.44
[2]; primary population, Trametinib vs chemotherapy
  HR for interim overall survival: 0.53
[2]; primary population
  median progression free survival: 4.8 mo
